PubChem BioAssay AID1224830 | NIAID, 2016
Screen: 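Host factors that control LPS-induced TNF expression in human macrophages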 (primary screen). System: human THP-1 monocytic leukaemia cells, TNF dual-luciferase reporter clone, PMA-differentiated to macrophage-like cells. Reagents: siRNA pool against human genes, 50 nM. Time to read-out: LPS for 4 h, given about 3 days after siRNA transfection. Challenge: bacterial LPS (TLR4 ligand), 10 ng/ml. Measured: 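Ratio of firefly to renilla light, scaled to the plate median and expressed as a robust z-score per replicate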. Scale: TNF reporter robust z-score: higher = stronger TNF reporter response to LPS. Rule for the call: 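a well is active when its z-score exceeds 2.8 or falls below -1.5; control wells carry no call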.
The deposit covers about 18,000 reagents; shown is a part drawn at random. Of all reagents, about 2,900 (16%) were called active. 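Calls are made per well; low scores hint the gene aids the LPS response, high scores that it dampens it.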 Repeated entries: four replicate wells of each siRNA pool.

no.	gene	PubChem SID	TNF reporter robust z-score	activity call
1	PAQR4 (progestin and adipoQ receptor family member 4)	SID315461604	-0.31	inactive
2	PAQR4 (progestin and adipoQ receptor family member 4)	SID315461604	-0.2	inactive
3	PAQR4 (progestin and adipoQ receptor family member 4)	SID315461604	0.92	inactive
4	PAQR4 (progestin and adipoQ receptor family member 4)	SID315461604	-0.81	inactive
5	TMEM205 (transmembrane protein 205)	SID315464337	-1.09	inactive
6	TMEM205 (transmembrane protein 205)	SID315464337	-0.89	inactive
7	TMEM205 (transmembrane protein 205)	SID315464337	-1.28	inactive
8	TMEM205 (transmembrane protein 205)	SID315464337	-1.16	inactive
9	NPHP1 (nephrocystin 1)	SID315450291	0.98	inactive
10	NPHP1 (nephrocystin 1)	SID315450291	0.77	inactive
11	NPHP1 (nephrocystin 1)	SID315450291	1.26	inactive
12	NPHP1 (nephrocystin 1)	SID315450291	0.71	inactive
13	RAPH1	SID315459075	0.67	inactive
14	RAPH1	SID315459075	-0.75	inactive
15	RAPH1	SID315459075	-0.2	inactive
16	RAPH1	SID315459075	-0.79	inactive
17	SPATA33 (spermatogenesis associated 33)	SID315461599	-0.52	inactive
18	SPATA33 (spermatogenesis associated 33)	SID315461599	-1.45	inactive
19	SPATA33 (spermatogenesis associated 33)	SID315461599	-1.19	inactive
20	SPATA33 (spermatogenesis associated 33)	SID315461599	-0.18	inactive
21	ADORA2B (adenosine A2b receptor)	SID315447210	0.45	inactive
22	ADORA2B (adenosine A2b receptor)	SID315447210	3.4	active
23	ADORA2B (adenosine A2b receptor)	SID315447210	0.67	inactive
24	ADORA2B (adenosine A2b receptor)	SID315447210	0.96	inactive
25	SYNJ2 (synaptojanin 2)	SID315452889	0.39	inactive
26	SYNJ2 (synaptojanin 2)	SID315452889	1.22	inactive
27	SYNJ2 (synaptojanin 2)	SID315452889	0.3	inactive
28	SYNJ2 (synaptojanin 2)	SID315452889	1.79	inactive
29	NANOG (Nanog homeobox)	SID315459565	0.18	inactive
30	NANOG (Nanog homeobox)	SID315459565	-1	inactive
31	NANOG (Nanog homeobox)	SID315459565	-0.75	inactive
32	NANOG (Nanog homeobox)	SID315459565	-0.55	inactive
33	LDHD (lactate dehydrogenase D)	SID315462985	-0.15	inactive
34	LDHD (lactate dehydrogenase D)	SID315462985	0.85	inactive
35	LDHD (lactate dehydrogenase D)	SID315462985	-0.21	inactive
36	LDHD (lactate dehydrogenase D)	SID315462985	-0.4	inactive
37	MACROH2A1 (macroH2A.1 histone)	SID315453380	0.89	inactive
38	MACROH2A1 (macroH2A.1 histone)	SID315453380	-0.14	inactive
39	MACROH2A1 (macroH2A.1 histone)	SID315453380	0.13	inactive
40	MACROH2A1 (macroH2A.1 histone)	SID315453380	0.64	inactive
41	TMBIM6 (transmembrane BAX inhibitor motif containing 6)	SID315451820	0.96	inactive
42	TMBIM6 (transmembrane BAX inhibitor motif containing 6)	SID315451820	-0.25	inactive
43	TMBIM6 (transmembrane BAX inhibitor motif containing 6)	SID315451820	-0.54	inactive
44	TMBIM6 (transmembrane BAX inhibitor motif containing 6)	SID315451820	1.02	inactive
45	GAB3 (GRB2 associated binding protein 3)	SID315462081	0.95	inactive
46	GAB3 (GRB2 associated binding protein 3)	SID315462081	1.72	inactive
47	GAB3 (GRB2 associated binding protein 3)	SID315462081	2.02	inactive
48	GAB3 (GRB2 associated binding protein 3)	SID315462081	2.28	inactive
49	CXCL14 (C-X-C motif chemokine ligand 14)	SID315453374	0.11	inactive
50	CXCL14 (C-X-C motif chemokine ligand 14)	SID315453374	0.7	inactive
51	CXCL14 (C-X-C motif chemokine ligand 14)	SID315453374	-1.27	inactive
52	CXCL14 (C-X-C motif chemokine ligand 14)	SID315453374	-0.69	inactive
53	PNMA1 (PNMA family member 1)	SID315453145	-1.17	inactive
54	PNMA1 (PNMA family member 1)	SID315453145	0.43	inactive
55	PNMA1 (PNMA family member 1)	SID315453145	-1.4	inactive
56	PNMA1 (PNMA family member 1)	SID315453145	-0.9	inactive
57	ZRSR2	SID315452440	1.18	inactive
58	ZRSR2	SID315452440	1.6	inactive
59	ZRSR2	SID315452440	1.27	inactive
60	ZRSR2	SID315452440	1.71	inactive
61	PLAAT1 (phospholipase A and acyltransferase 1)	SID315458266	0.56	inactive
62	PLAAT1 (phospholipase A and acyltransferase 1)	SID315458266	0.66	inactive
63	PLAAT1 (phospholipase A and acyltransferase 1)	SID315458266	-0.95	inactive
64	PLAAT1 (phospholipase A and acyltransferase 1)	SID315458266	0.17	inactive
65	CXCL13 (C-X-C motif chemokine ligand 13)	SID315454193	-1.34	inactive
66	CXCL13 (C-X-C motif chemokine ligand 13)	SID315454193	-0.47	inactive
67	CXCL13 (C-X-C motif chemokine ligand 13)	SID315454193	-1.23	inactive
68	CXCL13 (C-X-C motif chemokine ligand 13)	SID315454193	-0.46	inactive
69	PEX1 (peroxisomal biogenesis factor 1)	SID315450514	-0.48	inactive
70	PEX1 (peroxisomal biogenesis factor 1)	SID315450514	0.1	inactive
71	PEX1 (peroxisomal biogenesis factor 1)	SID315450514	-0.26	inactive
72	PEX1 (peroxisomal biogenesis factor 1)	SID315450514	-0.31	inactive
73	ZNF367 (zinc finger protein 367)	SID315462951	-0.02	inactive
74	ZNF367 (zinc finger protein 367)	SID315462951	-0.04	inactive
75	ZNF367 (zinc finger protein 367)	SID315462951	0.02	inactive
76	SBSN (suprabasin)	SID315464339	-1.77	active
77	SBSN (suprabasin)	SID315464339	-1.61	active
78	SBSN (suprabasin)	SID315464339	-1.38	inactive
79	SBSN (suprabasin)	SID315464339	-1.35	inactive
80	NXF5 (nuclear RNA export factor 5)	SID315457974	-0.16	inactive
81	NXF5 (nuclear RNA export factor 5)	SID315457974	1.24	inactive
82	NXF5 (nuclear RNA export factor 5)	SID315457974	-0.52	inactive
83	SEMA5A (semaphorin 5A)	SID315452990	-0.29	inactive
84	SEMA5A (semaphorin 5A)	SID315452990	-1.1	inactive
85	SEMA5A (semaphorin 5A)	SID315452990	-0.77	inactive
86	SEMA5A (semaphorin 5A)	SID315452990	-1	inactive
87	PHF3 (PHD finger protein 3)	SID315455263	0.45	inactive
88	PHF3 (PHD finger protein 3)	SID315455263	2.46	inactive
89	PHF3 (PHD finger protein 3)	SID315455263	-0.68	inactive
90	PHF3 (PHD finger protein 3)	SID315455263	1.83	inactive
91	SPINK8 (serine peptidase inhibitor Kazal type 8 (putative))	SID315465111	-0.74	inactive
92	SPINK8 (serine peptidase inhibitor Kazal type 8 (putative))	SID315465111	-1.12	inactive
93	SPINK8 (serine peptidase inhibitor Kazal type 8 (putative))	SID315465111	-0.19	inactive
94	ZNF385C (zinc finger protein 385C)	SID315463065	0.33	inactive
95	ZNF385C (zinc finger protein 385C)	SID315463065	0.17	inactive
96	ZNF385C (zinc finger protein 385C)	SID315463065	-0.25	inactive
97	ZNF385C (zinc finger protein 385C)	SID315463065	0.54	inactive
98	KCNN1 (potassium calcium-activated channel subfamily N member 1)	SID315449633	-1.17	inactive
99	KCNN1 (potassium calcium-activated channel subfamily N member 1)	SID315449633	-0.51	inactive
100	KCNN1 (potassium calcium-activated channel subfamily N member 1)	SID315449633	-0.66	inactive
101	KCNN1 (potassium calcium-activated channel subfamily N member 1)	SID315449633	-0.37	inactive
102	ARG1 (arginase 1)	SID315447389	0.13	inactive
103	ARG1 (arginase 1)	SID315447389	1.96	inactive
104	ARG1 (arginase 1)	SID315447389	0.25	inactive
105	ARG1 (arginase 1)	SID315447389	1.2	inactive
106	CRTAC1 (cartilage acidic protein 1)	SID315457420	1.47	inactive
107	CRTAC1 (cartilage acidic protein 1)	SID315457420	-0.99	inactive
108	CRTAC1 (cartilage acidic protein 1)	SID315457420	0.51	inactive
109	CRTAC1 (cartilage acidic protein 1)	SID315457420	0.07	inactive
110	CAPS (calcyphosine)	SID315447695	-0.52	inactive
111	CAPS (calcyphosine)	SID315447695	0.16	inactive
112	CAPS (calcyphosine)	SID315447695	0	inactive
113	CAPS (calcyphosine)	SID315447695	0.56	inactive
114	LCE2A (late cornified envelope 2A)	SID315464272	-0.74	inactive
115	LCE2A (late cornified envelope 2A)	SID315464272	-1.33	inactive
116	LCE2A (late cornified envelope 2A)	SID315464272	-1.1	inactive
117	LCE2A (late cornified envelope 2A)	SID315464272	-1.44	inactive
118	CHEK1 (checkpoint kinase 1)	SID315447905	1.82	inactive
119	CHEK1 (checkpoint kinase 1)	SID315447905	-0.35	inactive
120	CHEK1 (checkpoint kinase 1)	SID315447905	1.04	inactive
121	CHEK1 (checkpoint kinase 1)	SID315447905	1.23	inactive
122	HPS4 (HPS4 biogenesis of lysosomal organelles complex 3 subunit 2)	SID315460732	-0.31	inactive
123	HPS4 (HPS4 biogenesis of lysosomal organelles complex 3 subunit 2)	SID315460732	-0.34	inactive
124	HPS4 (HPS4 biogenesis of lysosomal organelles complex 3 subunit 2)	SID315460732	-1.07	inactive
125	HPS4 (HPS4 biogenesis of lysosomal organelles complex 3 subunit 2)	SID315460732	0.59	inactive
126	S100A6 (S100 calcium binding protein A6)	SID315451273	0.84	inactive
127	S100A6 (S100 calcium binding protein A6)	SID315451273	0.97	inactive
128	S100A6 (S100 calcium binding protein A6)	SID315451273	0.36	inactive
129	S100A6 (S100 calcium binding protein A6)	SID315451273	0.21	inactive
130	TC2N (tandem C2 domains, nuclear)	SID315461570	-1.03	inactive
131	TC2N (tandem C2 domains, nuclear)	SID315461570	0.16	inactive
132	TC2N (tandem C2 domains, nuclear)	SID315461570	-1.02	inactive
133	TC2N (tandem C2 domains, nuclear)	SID315461570	-0.22	inactive
134	SPRED2 (sprouty related EVH1 domain containing 2)	SID315463044	-1.19	inactive
135	SPRED2 (sprouty related EVH1 domain containing 2)	SID315463044	-1.24	inactive
136	SPRED2 (sprouty related EVH1 domain containing 2)	SID315463044	-1.39	inactive
137	SPRED2 (sprouty related EVH1 domain containing 2)	SID315463044	0.77	inactive
138	DESI2 (desumoylating isopeptidase 2)	SID315456417	0.84	inactive
139	DESI2 (desumoylating isopeptidase 2)	SID315456417	0.12	inactive
140	DESI2 (desumoylating isopeptidase 2)	SID315456417	0.62	inactive
141	DESI2 (desumoylating isopeptidase 2)	SID315456417	0.13	inactive
